In paper PMC4225773 (Bioorganic & medicinal chemistry letters, 2014):

Test: Cytotoxicity to uninfected THP1 macrophage cells
Conditions: human

For `O=C(CCCCCCC(=O)Nc1ccccc1)NO` [SAHA, suberoylanilide hydroxamic acid, reference compound], which IC50 is on record?
Its IC50 is greater than 10 µg/mL.
